Source: PMC11024145

Sequences of proteins named here, by UniProt entry; tags and fusion partners are left off.
UniProt A0A3S8Q1W1, entry or part of it: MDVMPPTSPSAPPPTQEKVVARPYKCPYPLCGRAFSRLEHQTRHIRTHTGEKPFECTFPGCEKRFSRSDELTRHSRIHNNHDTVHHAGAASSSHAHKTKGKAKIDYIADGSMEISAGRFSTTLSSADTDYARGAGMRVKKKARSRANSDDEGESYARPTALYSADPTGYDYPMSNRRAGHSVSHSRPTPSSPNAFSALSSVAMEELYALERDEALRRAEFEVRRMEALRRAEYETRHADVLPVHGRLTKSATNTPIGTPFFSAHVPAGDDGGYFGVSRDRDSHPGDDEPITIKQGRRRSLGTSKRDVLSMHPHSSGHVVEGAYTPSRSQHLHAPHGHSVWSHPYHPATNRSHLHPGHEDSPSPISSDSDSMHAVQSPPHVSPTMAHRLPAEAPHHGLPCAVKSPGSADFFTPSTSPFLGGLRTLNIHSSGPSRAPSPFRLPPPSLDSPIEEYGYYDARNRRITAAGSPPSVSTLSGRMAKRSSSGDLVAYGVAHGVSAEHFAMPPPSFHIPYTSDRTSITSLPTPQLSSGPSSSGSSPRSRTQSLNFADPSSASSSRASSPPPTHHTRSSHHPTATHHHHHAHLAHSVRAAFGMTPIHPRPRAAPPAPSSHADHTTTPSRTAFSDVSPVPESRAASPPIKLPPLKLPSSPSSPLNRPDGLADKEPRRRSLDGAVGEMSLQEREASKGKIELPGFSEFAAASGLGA

Assays:
[1] = target: T1, His-CreA (carbon catabolite repressor CreA) (Ganoderma lucidum) (UniProt A0A3S8Q1W1); assay: competition with a labelled probe; settings: unlabeled competitor against biotin-labeled N1; EMSA: 10 mM Tris-HCl pH 8.0, 1 mM DTT, 0.1 mM EDTA, 50 mM KCl, 5% glycerol; temperature not stated; recombinant protein; protein details: His (plasmid creA-28a)
[2] = target: T1, His-CreA (carbon catabolite repressor CreA) (Ganoderma lucidum); assay: EMSA; settings: EMSA: 10 mM Tris-HCl pH 8.0, 1 mM DTT, 0.1 mM EDTA, 50 mM KCl, 5% glycerol, temperature not stated, recombinant protein, protein details: His (plasmid creA-28a), label: 5' biotin on both strands

## TGGCTGGGGC (double strand) [unlabeled cold cbs promoter probe]
[1]
  binding result: binds

## TGGCTGTTGC (double strand) [mutated cbs promoter probe]
[2]
  binding result: no binding

## TGGCTGGGGC (double strand) [cbs promoter probe]
[2]; protein titration 10, 5, 2 ug (Results give 100, 50, 20 mM), shift falls with less protein
  binding result: binds

For at least one entry, the source does not settle the construct or the ends of the probe. For part of these data: Negatives hold for the conditions tested.
